These are yes or no findings as the source states them, for the method shown. Sequences can lack the tags named with a protein.
Target: T1, GST-SwrA (B. subtilis) (UniProt O32266)
T1 sequence: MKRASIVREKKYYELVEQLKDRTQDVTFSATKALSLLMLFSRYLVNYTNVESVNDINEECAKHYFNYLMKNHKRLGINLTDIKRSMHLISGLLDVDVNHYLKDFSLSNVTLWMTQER
Experiment: pull-down; 0.5 μM SmiA, 0.5 μM GST-SwrA, 80 nM LonA^K720Q-His6 (monomeric) mixed in 25 mM Tris pH 8.0, 100 mM KCl, 10 mM MgCl2, 0.02% NP-40, 1 mM DTT, 5 mM ATP at 37 °C; Glutathione-Sepharose resin; Western blot; both purified

B1: LonA^K720Q-His6 (enzyme, UniProt P37945 1-774)
chain: MAEELKRSIPLLPLRGLLVYPTMVLHLDVGRDKSVQALEQAMMHDHMIFLATQQDISIDEPGEDEIFTVGTYTKIKQMLKLPNGTIRVLVEGLKRAHIVKYNEHEDYTSVDIQLIHEDDSKDTEDEALMRTLLDHFDQYIKISKKISAETYAAVTDIEEPGRMADIVASHLPLKLKDKQDILETADVKDRLNKVIDFINNEKEVLEIEKKIGQRVKRSMERTQKEYYLREQMKAIQKELGDKEGKTGEVQTLTEKIEEAGMPDHVKETALKELNRYEKIPSSSAESSVIRNYIDWLVALPWTDETDDKLDLKEAGRLLDEEHHGLEKVKERILEYLAVQKLTKSLKGPILCLAGPPGVGKTSLAKSIAKSLGRKFVRISLGGVRDESEIRGHRRTYVGAMPGRIIQGMKKAGKLNPVFLLDEIDKMSSDFRGDPSSAMLEVLDPEQNSSFSDHYIEETFDLSKVLFIATANNLATIPGPLRDRMEIINIAGYTEIEKLEIVKDHLLPKQIKEHGLKKSNLQLRDQAILDIIRYYTREAGVRSLERQLAAICRKAAKAIVAEERKRITVTEKNLQDFIGKRIFRYGQAETEDQVGVVTGLAYTTVGGDTLSIEVSLSPGKGKLILTGKLGDVMRESAQAAFSYVRSKTEELGIEPDFHEKYDIHIHVPEGAVPKDGPSAGITMATALVSALTGRAVSREVGMTGEITLRGRVLPIGGLKEQALGAHRAGLTTIIAPKDNEKDIEDIPESVREGLTFILASHLDEVLEHALVGEKK
B1 was tested, and the binding was “no binding (tested: 80 nM LonA^K720Q-His6 (monomeric))”.

— publication PMC9204741 (2022)
